Data: patent US20250282890A1
Results are given in words; binding and its absence hold for the method and conditions named. Some entries that bind do so weakly or less than the wild type.

Amino acid sequences for entries named in this document (tags omitted). A change or cut given only in a name is not applied to a line headed by its entry.
UniProt Q04609: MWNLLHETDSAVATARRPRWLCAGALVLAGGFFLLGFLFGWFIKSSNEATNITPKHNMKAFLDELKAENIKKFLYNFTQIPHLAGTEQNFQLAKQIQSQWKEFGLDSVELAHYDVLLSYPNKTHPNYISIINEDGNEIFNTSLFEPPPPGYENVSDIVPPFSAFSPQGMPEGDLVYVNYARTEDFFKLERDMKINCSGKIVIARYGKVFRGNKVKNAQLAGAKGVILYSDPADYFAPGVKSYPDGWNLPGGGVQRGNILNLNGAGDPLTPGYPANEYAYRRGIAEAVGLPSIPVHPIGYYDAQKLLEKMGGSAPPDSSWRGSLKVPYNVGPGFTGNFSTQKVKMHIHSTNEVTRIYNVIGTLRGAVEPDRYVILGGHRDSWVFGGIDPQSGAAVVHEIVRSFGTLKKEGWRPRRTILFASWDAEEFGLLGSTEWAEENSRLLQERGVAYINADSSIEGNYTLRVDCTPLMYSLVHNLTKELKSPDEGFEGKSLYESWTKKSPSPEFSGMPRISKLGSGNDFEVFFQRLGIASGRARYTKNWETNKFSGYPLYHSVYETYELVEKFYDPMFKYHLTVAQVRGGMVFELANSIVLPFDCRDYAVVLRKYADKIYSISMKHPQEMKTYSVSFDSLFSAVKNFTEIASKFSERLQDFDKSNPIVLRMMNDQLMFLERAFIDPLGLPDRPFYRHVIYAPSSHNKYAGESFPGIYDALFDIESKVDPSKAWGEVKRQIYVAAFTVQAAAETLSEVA

Key:
[1] = molecular target: recombinant human PSMA (prostate-specific membrane antigen), biotin-tagged (human) (UniProt Q04609); assay: ELISA on plates coated with recombinant PSMA, two-fold dilution series, goat anti-human-HRP and TMB
[2] = molecular target: recombinant human PSMA (prostate-specific membrane antigen), biotin-tagged (human) (UniProt Q04609); assay: ELISA on plates coated with recombinant PSMA (biotin-tagged, captured on streptavidin), two-fold dilution series, goat anti-human-HRP and TMB

Row | Binder | binding [1] | binding [2]
1 | 5-5D3-IgG1 (antibody, V domains shown) VH: QVQLVQSGPEVKKPGASVRLSCKASGYAFNTSWMNWVRQAPGQGLEWIGRIYPGDGDTNYNGKFKGKATMTADKSTNTAYMELRSLRSDDTAVYYCGRGEWYLYYFDYWGQGTLVTVSS VL: DIQMTQSPSSVSASVGDRVTISCSASQGINNFLTWYQQKLGKALQLLIYYTSSLHSGVPSRFSGSGSGTDYTLTISSLQPEDFATYYCQQYSNLPFTFGPGTKVDIK | binds | –
2 | 5-5D3-hFab (Fab, V domains shown) VH: QVQLVQSGPEVKKPGASVRLSCKASGYAFNTSWMNWVRQAPGQGLEWIGRIYPGDGDTNYNGKFKGKATMTADKSTNTAYMELRSLRSDDTAVYYCGRGEWYLYYFDYWGQGTLVTVSS VL: DIQMTQSPSSVSASVGDRVTISCSASQGINNFLTWYQQKLGKALQLLIYYTSSLHSGVPSRFSGSGSGTDYTLTISSLQPEDFATYYCQQYSNLPFTFGPGTKVDIK | – | binds
